Source: the supplement of paper PMC10849652
The other results are listed elsewhere or left out.

Chains of the proteins cited; added tags and fusions are not shown. Lines headed by an entry give the natural chain unless they say otherwise; changes in a name come on top.
UniProt P25490, whole entry, looked up: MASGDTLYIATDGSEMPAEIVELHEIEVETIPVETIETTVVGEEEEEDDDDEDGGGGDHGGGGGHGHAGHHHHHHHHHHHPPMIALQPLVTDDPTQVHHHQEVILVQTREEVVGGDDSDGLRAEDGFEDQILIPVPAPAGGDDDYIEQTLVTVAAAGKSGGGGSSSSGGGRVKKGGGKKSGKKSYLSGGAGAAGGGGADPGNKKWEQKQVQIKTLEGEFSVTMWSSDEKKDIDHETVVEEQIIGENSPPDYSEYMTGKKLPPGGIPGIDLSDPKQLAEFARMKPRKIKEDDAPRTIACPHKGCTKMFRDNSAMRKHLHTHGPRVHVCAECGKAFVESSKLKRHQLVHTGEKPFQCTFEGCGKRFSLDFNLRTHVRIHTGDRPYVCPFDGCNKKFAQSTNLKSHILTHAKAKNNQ
UniProt P31946: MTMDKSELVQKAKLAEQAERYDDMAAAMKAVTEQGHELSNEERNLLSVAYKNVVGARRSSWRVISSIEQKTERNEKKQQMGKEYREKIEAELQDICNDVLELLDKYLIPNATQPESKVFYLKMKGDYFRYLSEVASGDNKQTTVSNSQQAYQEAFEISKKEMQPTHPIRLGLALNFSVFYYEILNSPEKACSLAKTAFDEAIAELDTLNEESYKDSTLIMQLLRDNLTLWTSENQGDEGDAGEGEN
UniProt P62699: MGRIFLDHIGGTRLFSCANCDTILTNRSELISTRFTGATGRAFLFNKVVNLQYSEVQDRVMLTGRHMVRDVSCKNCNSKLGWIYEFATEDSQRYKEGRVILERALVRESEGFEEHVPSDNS
UniProt P37275: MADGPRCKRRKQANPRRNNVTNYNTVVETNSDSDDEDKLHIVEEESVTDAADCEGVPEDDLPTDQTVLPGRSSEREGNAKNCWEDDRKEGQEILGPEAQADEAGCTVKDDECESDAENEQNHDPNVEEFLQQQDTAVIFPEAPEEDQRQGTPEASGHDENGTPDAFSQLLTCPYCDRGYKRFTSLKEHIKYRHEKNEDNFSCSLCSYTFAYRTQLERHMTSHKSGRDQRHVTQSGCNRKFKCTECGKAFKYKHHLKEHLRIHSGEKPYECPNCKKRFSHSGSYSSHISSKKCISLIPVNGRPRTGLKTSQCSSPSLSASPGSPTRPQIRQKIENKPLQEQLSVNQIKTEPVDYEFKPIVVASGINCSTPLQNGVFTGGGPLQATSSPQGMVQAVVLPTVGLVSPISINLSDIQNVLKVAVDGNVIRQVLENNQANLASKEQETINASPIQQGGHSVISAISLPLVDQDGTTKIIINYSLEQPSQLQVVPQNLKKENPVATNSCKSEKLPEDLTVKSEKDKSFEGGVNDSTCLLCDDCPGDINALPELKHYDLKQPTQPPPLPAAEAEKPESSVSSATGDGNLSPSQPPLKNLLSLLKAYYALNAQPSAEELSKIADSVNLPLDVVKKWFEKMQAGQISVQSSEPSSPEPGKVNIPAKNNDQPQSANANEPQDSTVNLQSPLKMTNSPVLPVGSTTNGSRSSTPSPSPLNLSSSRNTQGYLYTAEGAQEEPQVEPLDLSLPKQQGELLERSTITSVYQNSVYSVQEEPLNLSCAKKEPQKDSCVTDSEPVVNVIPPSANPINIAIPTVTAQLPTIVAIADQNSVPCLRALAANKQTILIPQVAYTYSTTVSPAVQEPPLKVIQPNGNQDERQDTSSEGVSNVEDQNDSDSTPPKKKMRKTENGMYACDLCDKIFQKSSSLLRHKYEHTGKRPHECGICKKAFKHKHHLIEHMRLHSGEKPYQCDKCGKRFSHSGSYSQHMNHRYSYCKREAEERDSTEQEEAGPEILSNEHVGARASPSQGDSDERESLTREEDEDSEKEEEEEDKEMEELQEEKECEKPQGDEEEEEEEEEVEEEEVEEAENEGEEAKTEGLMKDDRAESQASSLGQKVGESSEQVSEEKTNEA
UniProt Q9Y548: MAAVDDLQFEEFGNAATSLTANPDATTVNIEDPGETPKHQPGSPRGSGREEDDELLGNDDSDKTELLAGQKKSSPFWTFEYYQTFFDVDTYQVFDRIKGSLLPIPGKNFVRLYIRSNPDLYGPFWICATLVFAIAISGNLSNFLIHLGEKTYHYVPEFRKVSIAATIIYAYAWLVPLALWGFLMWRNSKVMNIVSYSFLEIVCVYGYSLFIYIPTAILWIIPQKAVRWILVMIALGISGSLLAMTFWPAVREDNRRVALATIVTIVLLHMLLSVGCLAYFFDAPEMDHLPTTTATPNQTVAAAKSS
UniProt Q9NQH7: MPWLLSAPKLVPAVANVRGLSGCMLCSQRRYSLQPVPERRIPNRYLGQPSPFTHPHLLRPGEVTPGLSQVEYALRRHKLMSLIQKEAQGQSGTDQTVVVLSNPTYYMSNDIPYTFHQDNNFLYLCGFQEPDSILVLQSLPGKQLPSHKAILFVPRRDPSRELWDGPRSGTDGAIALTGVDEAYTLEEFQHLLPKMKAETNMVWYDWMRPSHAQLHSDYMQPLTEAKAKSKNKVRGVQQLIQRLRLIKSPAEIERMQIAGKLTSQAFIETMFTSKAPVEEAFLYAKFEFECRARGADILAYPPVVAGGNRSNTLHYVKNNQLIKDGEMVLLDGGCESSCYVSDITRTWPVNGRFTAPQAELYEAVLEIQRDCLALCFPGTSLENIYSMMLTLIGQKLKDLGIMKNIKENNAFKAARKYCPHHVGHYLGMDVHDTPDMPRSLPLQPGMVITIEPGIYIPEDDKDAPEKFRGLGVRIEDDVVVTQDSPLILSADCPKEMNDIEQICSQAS
UniProt P51811: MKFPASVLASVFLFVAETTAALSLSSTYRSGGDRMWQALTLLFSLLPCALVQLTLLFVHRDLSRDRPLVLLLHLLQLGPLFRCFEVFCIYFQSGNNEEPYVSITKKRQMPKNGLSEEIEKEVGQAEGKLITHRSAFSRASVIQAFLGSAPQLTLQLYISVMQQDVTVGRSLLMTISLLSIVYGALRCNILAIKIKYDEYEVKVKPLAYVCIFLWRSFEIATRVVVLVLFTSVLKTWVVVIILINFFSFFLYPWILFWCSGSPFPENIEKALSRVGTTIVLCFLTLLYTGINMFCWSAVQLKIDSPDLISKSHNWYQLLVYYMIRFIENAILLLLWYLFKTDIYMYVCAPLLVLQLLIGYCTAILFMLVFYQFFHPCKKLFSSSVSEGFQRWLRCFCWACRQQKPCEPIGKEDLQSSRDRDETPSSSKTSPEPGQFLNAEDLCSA
UniProt Q8IZH2: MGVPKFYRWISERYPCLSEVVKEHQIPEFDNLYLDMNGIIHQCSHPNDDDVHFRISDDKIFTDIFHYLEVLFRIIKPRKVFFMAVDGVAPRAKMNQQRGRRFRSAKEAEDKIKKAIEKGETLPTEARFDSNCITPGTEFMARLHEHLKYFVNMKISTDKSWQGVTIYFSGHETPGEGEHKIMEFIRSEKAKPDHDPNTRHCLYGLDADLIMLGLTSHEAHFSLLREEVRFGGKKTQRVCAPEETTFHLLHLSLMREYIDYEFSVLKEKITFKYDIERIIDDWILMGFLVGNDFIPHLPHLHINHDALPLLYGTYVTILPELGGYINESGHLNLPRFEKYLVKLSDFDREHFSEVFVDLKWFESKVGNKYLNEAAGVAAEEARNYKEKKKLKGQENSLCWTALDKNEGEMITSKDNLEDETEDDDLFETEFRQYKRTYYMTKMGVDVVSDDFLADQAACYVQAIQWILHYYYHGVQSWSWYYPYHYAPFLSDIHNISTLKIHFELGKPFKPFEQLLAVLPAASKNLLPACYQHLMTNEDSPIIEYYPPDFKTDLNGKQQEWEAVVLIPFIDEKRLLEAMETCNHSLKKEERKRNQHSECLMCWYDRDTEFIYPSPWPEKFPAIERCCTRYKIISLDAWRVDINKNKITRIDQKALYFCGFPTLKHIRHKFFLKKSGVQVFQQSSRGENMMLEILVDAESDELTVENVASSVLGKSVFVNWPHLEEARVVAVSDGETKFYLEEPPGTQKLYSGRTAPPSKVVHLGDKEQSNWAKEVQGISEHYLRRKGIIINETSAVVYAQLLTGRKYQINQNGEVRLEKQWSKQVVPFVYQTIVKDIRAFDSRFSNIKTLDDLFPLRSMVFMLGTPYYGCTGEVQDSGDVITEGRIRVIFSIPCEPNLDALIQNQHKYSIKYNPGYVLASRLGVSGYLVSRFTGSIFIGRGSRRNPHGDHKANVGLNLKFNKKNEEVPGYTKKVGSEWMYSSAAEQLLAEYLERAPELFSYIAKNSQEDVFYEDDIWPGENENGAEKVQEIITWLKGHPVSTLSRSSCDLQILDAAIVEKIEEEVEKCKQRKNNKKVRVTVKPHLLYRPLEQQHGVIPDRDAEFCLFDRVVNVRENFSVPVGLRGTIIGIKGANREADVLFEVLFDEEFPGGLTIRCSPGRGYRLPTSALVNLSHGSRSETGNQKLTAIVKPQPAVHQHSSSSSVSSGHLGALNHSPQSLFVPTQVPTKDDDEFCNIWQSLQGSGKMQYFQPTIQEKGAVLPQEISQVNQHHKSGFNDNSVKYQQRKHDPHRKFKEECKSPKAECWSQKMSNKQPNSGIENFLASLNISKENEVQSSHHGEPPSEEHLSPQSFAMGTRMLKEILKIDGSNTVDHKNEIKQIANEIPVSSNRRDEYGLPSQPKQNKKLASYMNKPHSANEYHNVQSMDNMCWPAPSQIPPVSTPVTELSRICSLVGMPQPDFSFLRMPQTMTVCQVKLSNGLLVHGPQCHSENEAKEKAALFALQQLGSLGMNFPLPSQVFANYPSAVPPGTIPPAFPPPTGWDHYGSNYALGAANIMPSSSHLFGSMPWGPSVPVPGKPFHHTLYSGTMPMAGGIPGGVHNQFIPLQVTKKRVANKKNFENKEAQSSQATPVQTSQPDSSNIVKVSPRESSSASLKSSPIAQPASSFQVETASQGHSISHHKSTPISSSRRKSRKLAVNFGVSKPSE
UniProt P17010: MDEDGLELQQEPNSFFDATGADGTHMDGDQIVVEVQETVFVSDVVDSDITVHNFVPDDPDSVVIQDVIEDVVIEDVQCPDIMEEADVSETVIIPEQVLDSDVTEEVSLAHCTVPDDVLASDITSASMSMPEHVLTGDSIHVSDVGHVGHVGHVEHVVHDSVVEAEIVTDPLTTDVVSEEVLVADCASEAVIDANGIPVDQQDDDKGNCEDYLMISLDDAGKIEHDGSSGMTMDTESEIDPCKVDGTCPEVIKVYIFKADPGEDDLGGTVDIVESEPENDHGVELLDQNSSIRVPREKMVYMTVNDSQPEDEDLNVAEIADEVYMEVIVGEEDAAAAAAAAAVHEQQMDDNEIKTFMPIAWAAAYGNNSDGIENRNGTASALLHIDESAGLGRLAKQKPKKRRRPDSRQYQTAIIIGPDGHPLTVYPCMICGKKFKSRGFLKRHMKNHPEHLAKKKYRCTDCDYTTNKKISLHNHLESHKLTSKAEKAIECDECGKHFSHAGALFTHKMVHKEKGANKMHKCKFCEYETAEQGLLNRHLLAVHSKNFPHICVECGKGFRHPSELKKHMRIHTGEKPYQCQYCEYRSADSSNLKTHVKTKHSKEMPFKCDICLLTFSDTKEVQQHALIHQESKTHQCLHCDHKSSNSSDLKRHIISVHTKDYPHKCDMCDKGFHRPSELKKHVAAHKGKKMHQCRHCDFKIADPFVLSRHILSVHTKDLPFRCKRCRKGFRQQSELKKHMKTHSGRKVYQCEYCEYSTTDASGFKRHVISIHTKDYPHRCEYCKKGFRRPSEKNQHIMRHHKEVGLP
UniProt Q13105: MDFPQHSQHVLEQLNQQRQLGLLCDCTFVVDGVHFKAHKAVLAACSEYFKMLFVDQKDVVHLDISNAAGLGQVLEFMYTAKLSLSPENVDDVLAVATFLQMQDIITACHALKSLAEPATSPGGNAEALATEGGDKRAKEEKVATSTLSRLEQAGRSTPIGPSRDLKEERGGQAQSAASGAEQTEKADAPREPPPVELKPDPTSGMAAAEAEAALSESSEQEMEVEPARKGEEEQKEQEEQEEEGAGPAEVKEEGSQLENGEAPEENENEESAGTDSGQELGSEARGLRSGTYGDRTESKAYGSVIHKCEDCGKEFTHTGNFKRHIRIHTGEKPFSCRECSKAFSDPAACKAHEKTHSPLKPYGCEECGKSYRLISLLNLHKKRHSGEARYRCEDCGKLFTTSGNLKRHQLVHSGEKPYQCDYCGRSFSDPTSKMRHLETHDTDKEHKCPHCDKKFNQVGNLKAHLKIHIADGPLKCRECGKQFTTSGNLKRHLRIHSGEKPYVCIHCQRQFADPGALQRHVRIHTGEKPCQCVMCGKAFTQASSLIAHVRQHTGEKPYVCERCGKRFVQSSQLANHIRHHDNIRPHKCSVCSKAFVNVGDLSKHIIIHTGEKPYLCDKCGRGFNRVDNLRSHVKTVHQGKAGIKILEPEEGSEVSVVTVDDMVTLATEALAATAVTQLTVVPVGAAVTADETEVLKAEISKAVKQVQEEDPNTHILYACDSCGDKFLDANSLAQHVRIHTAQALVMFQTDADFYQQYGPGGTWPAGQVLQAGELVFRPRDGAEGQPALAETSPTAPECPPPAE

How the values were obtained:
Test in all cases: log2 fold change, soluble protein after heating vs DMSO (PISA); higher = thermal stabilisation; K562 cells, 10 uM, 30 min; active = over 0.2 and 3.5 SD of the protein, either way, in both replicates (recomputed)
[1] = compound: CC[C@@H]1C(=O)N(C)c2cnc(Nc3ccc(C(=O)NC4CCN(C)CC4)cc3OC)nc2N1C1CCCC1
Outline: (§1)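 Quantification of soluble protein used TMTpro 16plex LC-MS/MS, with channel sums equalised. Samples were the supernatant after 21,000xg for 90 min of pooled aliquots from K562 cells (2×10^6 cells/mL) treated with 10 μM compound for 30 min, heated for 3 min over 48°C-58°C, and extracted in PBS with 0.5% NP-40 at 4°C. Values, from duplicates, describe thermal stability against control samples on a log2 fold-change scale.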

[2] = compound: CC[C@@H]1C(=O)N(C)c2cnc(Nc3ccc(C(=O)N[C@H]4CC[C@H](N5CCN(CC6CC6)CC5)CC4)cc3OC)nc2N1C(C)C [volasertib]
Outline: as §1

[3] = compound: CC[C@H](C)N1C=C(C2=C(C=C(C=C21)C3=CN=C(C=C3)N4CCNCC4)C(=O)NCC5=C(C=C(NC5=O)C)C)C
Outline: as §1

[4] = compound: CC[C@H](C)[C@@H](C(=O)N[C@@H]([C@@H](C)O)C(=O)N[C@@H](CC(C)C)C(=O)[C@]1(CO1)C)NC(=O)[C@H]([C@@H](C)CC)N(C)C(=O)C [epoxomicin]
Outline: as §1

[5] = compound: CCn1cc(-c2ccnc3[nH]c(-c4cccc(CN(C)C)c4)cc23)c(-c2ccc(NC(=O)N(C)C)cc2)n1
Outline: as §1

[6] = compound: CN(C)CC(=O)Nc1ccc2[nH]c(=O)c3ccccc3c2c1
Outline: as §1

[7] = compound: CN1C2=C(C3=C1C(=O)N(N=C3)CC4=CC(=CC=C4)N)SC(=C2)S(=O)C
Outline: as §1

[8] = compound: CN1CCC(CNc2ccc3ncc(-c4cccc(OC(F)(F)F)c4)n3n2)CC1
Outline: as §1

[9] = compound: CN1CCN(CCOc2cc(OC3CCOCC3)c3c(Nc4c(Cl)ccc5c4OCO5)ncnc3c2)CC1 [saracatinib]
Outline: as §1

[10] = compound: CN1CCN(c2nc(C3=C(c4c[nH]c5ccccc45)C(=O)NC3=O)c3ccccc3n2)CC1 [sotrastaurin]
Outline: as §1

[11] = compound: CN1CCc2c(c3ccccc3n2Cc2ccc(C(=O)NO)cc2)C1 [Tubastatin A]
Outline: as §1

[12] = compound: CNC(=O)C1=CC=CC=C1NC2=NC(=NC=C2Cl)NC3=C(C=C(C=C3)N4CCOCC4)OC
Outline: as §1

[13] = compound: CNC(=O)c1ccc(Nc2ncc(C(F)(F)F)c(NCc3nccnc3N(C)S(C)(=O)=O)n2)cc1 [defactinib]
Outline: as §1

[14] = compound: CNCc1ccc(-c2[nH]c3cc(F)cc4c3c2CCNC4=O)cc1 [rucaparib]
Outline: as §1

[15] = compound: CNc1nc(-c2ccc3c(N)n[nH]c3c2)cc(N2C[C@@H](C(=O)NC3CCCCC3)CC[C@H]2C)n1
Outline: as §1

[16] = compound: COC(=O)N[C@@H](C)CNc1nccc(-c2cn(C(C)C)nc2-c2cc(Cl)cc(NS(C)(=O)=O)c2F)n1 [encorafenib]
Outline: as §1

[17] = compound: COC(=O)[C@H](CCSC)NC(=O)C1=C(C=C(C=C1)NC[C@H](CS)N)C2=CC=CC=C2
Outline: as §1

[18] = compound: CN(CCOC1=CC=C(C=C1)C[C@H]2C(=O)NC(=O)S2)C3=CC=CC=N3 (racemic) [rosiglitazone]
Outline: as §1

[19] = compound: CN1CC[C@H](c2c(O)cc(O)c3c(=O)cc(-c4ccccc4Cl)oc23)[C@H](O)C1 [alvocidib]
Outline: as §1

[20] = compound: CCn1c(C(=O)N(C2CC2)C2CC2)cc2c3c(ncn3C)c(Nc3cc(C)n(C)n3)nc21
Outline: as §1

| Target | log2 fold change [1] | log2 fold change [2] | log2 fold change [3] | log2 fold change [4] | log2 fold change [5] | log2 fold change [6] | log2 fold change [7] | log2 fold change [8] | log2 fold change [9] | log2 fold change [10] | log2 fold change [11] | log2 fold change [12] | log2 fold change [13] | log2 fold change [14] | log2 fold change [15] | log2 fold change [16] | log2 fold change [17] | log2 fold change [18] | log2 fold change [19] | log2 fold change [20] |
| --- | --- | --- | --- | --- | --- | --- | --- | --- | --- | --- | --- | --- | --- | --- | --- | --- | --- | --- | --- | --- |
| ZDHHC17 (UniProt Q8IUH5) | inactive: -0.009 | inactive: -0.095 | inactive: -0.022 | inactive: -0.044 | inactive: -0.018 | inactive: -0.005 | inactive: -0.027 | inactive: 0.065 | inactive: -0.009 | inactive: 0.099 | inactive: -0.012 | inactive: 0.146 | inactive: -0.007 | inactive: -0.034 | inactive: 0.017 | inactive: -0.015 | inactive: 0.01 |  |  |  |
| ZKSCAN8 (UniProt Q15776) | inactive: 0.034 | inactive: -0.027 |  | inactive: -0.184 | inactive: 0.237 | inactive: -0.028 | inactive: 0.392 | inactive: -0.136 | inactive: -0.382 | inactive: -0.14 | inactive: 0.107 |  | inactive: -0.242 | inactive: 0.196 | inactive: 0.067 | inactive: 0.117 | inactive: 0.009 |  |  |  |
| ZC3H11A (UniProt O75152) | inactive: -0.297 | inactive: -0.369 | inactive: 0.002 |  | inactive: 0.049 | inactive: 0.11 | inactive: -0.127 | inactive: -0.039 | inactive: -0.423 |  |  |  | inactive: 0 | inactive: 0.136 | inactive: 0.182 | inactive: 0.141 | inactive: 0.067 | inactive: -0.045 | inactive: -0.028 |  |
| YY1 (UniProt P25490) | inactive: -0.149 | active: -0.44 | inactive: 0.061 | inactive: -0.003 | inactive: 0.002 | inactive: -0.047 | inactive: 0.045 | inactive: -0.21 | inactive: 0.047 | inactive: -0.092 | inactive: -0.011 | inactive: -0.046 | active: -0.299 | inactive: -0.05 | inactive: -0.08 | inactive: 0.066 | inactive: 0.014 |  |  |  |
| ZDHHC2 (UniProt Q9UIJ5) | inactive: 0.013 | inactive: 0.063 | inactive: 0.033 |  | inactive: 0.031 |  |  | inactive: -0.023 |  | inactive: -0.015 |  |  |  | inactive: -0.117 |  | inactive: 0.065 |  | inactive: 0.209 |  |  |
| YWHAB (UniProt P31946) | inactive: -0.055 | inactive: 0.024 | inactive: 0.009 | inactive: 0.018 | inactive: 0.014 | inactive: -0.033 | inactive: -0.068 | inactive: -0.042 | inactive: 0.014 | inactive: 0.031 | inactive: -0.014 | inactive: 0.019 | inactive: -0.022 | inactive: -0.078 | inactive: -0.015 | inactive: -0.003 | inactive: 0.016 |  |  |  |
| YPEL5 (UniProt P62699) | inactive: 0.024 | inactive: -0.022 | inactive: 0.109 | inactive: -0.052 | inactive: -0.072 | inactive: 0.008 | inactive: 0.132 | inactive: -0.094 | inactive: 0.069 | inactive: -0.102 |  | inactive: 0.08 | inactive: -0.073 | inactive: 0.002 | inactive: -0.06 | inactive: -0.001 | inactive: -0.23 |  |  |  |
| XPOT (UniProt O43592) | active: -0.363 | active: -0.855 | inactive: 0.04 | inactive: -0.033 | inactive: 0.021 | inactive: 0.058 | inactive: -0.028 | inactive: -0.16 | inactive: 0.017 | inactive: -0.102 | inactive: 0.026 | inactive: 0.076 | inactive: -0.022 | inactive: 0.005 | inactive: -0.116 | inactive: 0.076 | inactive: -0.044 |  |  |  |
| YWHAZ (UniProt P63104) | inactive: -0.083 | inactive: -0.016 | inactive: 0.008 | inactive: 0.041 | inactive: -0.042 | inactive: 0.009 | inactive: -0.115 | inactive: 0.035 | inactive: 0.064 | inactive: -0.01 | inactive: -0.004 | inactive: -0.013 | inactive: 0 | inactive: -0.041 | inactive: 0.031 | inactive: -0.031 | inactive: -0.002 |  |  |  |
| ZEB1 isoform 2 (UniProt P37275) | inactive: 0.006 | inactive: 0.108 | inactive: 0.053 |  | inactive: -0.003 | inactive: 0.065 | inactive: 0.021 | inactive: 0.13 | inactive: 0.066 | inactive: 0.064 | inactive: 0.043 | inactive: -0.14 | inactive: -0.088 | inactive: -0.101 | inactive: -0.138 | inactive: -0.023 | inactive: 0.096 | inactive: 0.028 | inactive: -0.049 | inactive: -0.068 |
| YIPF1 (UniProt Q9Y548) | inactive: 0.062 | inactive: -0.018 | inactive: -0.034 |  |  | inactive: -0.049 |  |  |  | inactive: 0.106 | inactive: -0.019 | inactive: 0 | inactive: 0.088 | inactive: -0.033 |  | inactive: 0.005 | inactive: 0.21 | inactive: 0.09 | inactive: 0.096 | inactive: 0.027 |
| XPNPEP3 (UniProt Q9NQH7) | inactive: 0.046 | inactive: 0.075 | inactive: 0.069 | inactive: 0.075 | inactive: -0.076 | inactive: -0.004 | inactive: -0.022 | inactive: 0.012 | inactive: 0.022 | inactive: -0.017 | inactive: -0.021 | inactive: 0 | inactive: -0.033 | inactive: -0.018 | inactive: -0.035 | inactive: -0.005 | inactive: 0.038 |  |  |  |
| XK (UniProt P51811) | inactive: 0.062 | inactive: 0.014 | inactive: -0.133 |  | inactive: -0.138 | inactive: -0.036 | inactive: -0.031 | inactive: 0.028 | inactive: -0.032 | inactive: 0.044 |  | inactive: 0.023 | inactive: -0.053 | inactive: 0.03 | inactive: 0.007 | inactive: -0.112 | inactive: 0.115 | inactive: -0.05 | inactive: 0.003 | inactive: -0.092 |
| XRN1 (UniProt Q8IZH2) | inactive: -0.03 |  | inactive: 0.038 | inactive: -0.129 | inactive: 0.087 | inactive: -0.139 | inactive: 0.367 | inactive: 0.085 | inactive: -0.092 |  | inactive: 0.009 |  | inactive: 0.152 | inactive: 0.614 | inactive: 0.063 | inactive: 0.355 | inactive: -0.157 | inactive: 0.064 | inactive: 0.184 |  |
| ZFYVE21 isoform 2 (UniProt Q9BQ24) | inactive: -0.097 |  |  |  | inactive: 0.123 | inactive: 0.256 | inactive: -0.018 | inactive: -0.562 | inactive: 0.11 |  | inactive: 0.047 | inactive: -0.13 | inactive: 0.05 | inactive: -0.066 | inactive: 0.348 | inactive: 0.075 | inactive: 0.156 |  |  | inactive: -0.179 |
| ZFX isoform 3 (UniProt P17010) |  |  |  |  |  | inactive: 0.278 |  |  |  |  | inactive: -0.094 |  | inactive: -0.488 |  |  |  | inactive: -0.068 |  |  |  |
| ZBTB17 isoform 2 (UniProt Q13105) |  |  |  |  |  |  |  |  |  | inactive: 0.03 | inactive: 0.049 | inactive: -0.041 |  |  |  |  |  |  |  |  |

As a short view, part of the list above.

| Target | log2 fold change [1] | log2 fold change [2] | log2 fold change [3] | log2 fold change [4] | log2 fold change [5] | log2 fold change [6] | log2 fold change [7] | log2 fold change [8] | log2 fold change [9] | log2 fold change [10] | log2 fold change [11] | log2 fold change [12] | log2 fold change [13] | log2 fold change [14] | log2 fold change [15] | log2 fold change [16] | log2 fold change [17] | log2 fold change [18] | log2 fold change [19] | log2 fold change [20] |
| --- | --- | --- | --- | --- | --- | --- | --- | --- | --- | --- | --- | --- | --- | --- | --- | --- | --- | --- | --- | --- |
| YWHAZ (UniProt P63104) | inactive: -0.083 | inactive: -0.016 | inactive: 0.008 | inactive: 0.041 | inactive: -0.042 | inactive: 0.009 | inactive: -0.115 | inactive: 0.035 | inactive: 0.064 | inactive: -0.01 | inactive: -0.004 | inactive: -0.013 | inactive: 0 | inactive: -0.041 | inactive: 0.031 | inactive: -0.031 | inactive: -0.002 |  |  |  |
| ZEB1 isoform 2 (UniProt P37275) | inactive: 0.006 | inactive: 0.108 | inactive: 0.053 |  | inactive: -0.003 | inactive: 0.065 | inactive: 0.021 | inactive: 0.13 | inactive: 0.066 | inactive: 0.064 | inactive: 0.043 | inactive: -0.14 | inactive: -0.088 | inactive: -0.101 | inactive: -0.138 | inactive: -0.023 | inactive: 0.096 | inactive: 0.028 | inactive: -0.049 | inactive: -0.068 |
